Results as given in the supplement of paper PMC3334620.
Whole data set: some 33,000 sequences, median “E-score (-0.5 to 0.5)” near -0.0059, cut for the highest 2% near 0.26. The list shows a part of the results.

molecular target: T1, Cin5 (UniProt P40917); assay: PBM E-score (8-mer binding enrichment) (E-score (-0.5 to 0.5)); higher = stronger / more preferred TF binding; conditions: protein concentration: 100 nM; construct: GST-full length
T1 sequence: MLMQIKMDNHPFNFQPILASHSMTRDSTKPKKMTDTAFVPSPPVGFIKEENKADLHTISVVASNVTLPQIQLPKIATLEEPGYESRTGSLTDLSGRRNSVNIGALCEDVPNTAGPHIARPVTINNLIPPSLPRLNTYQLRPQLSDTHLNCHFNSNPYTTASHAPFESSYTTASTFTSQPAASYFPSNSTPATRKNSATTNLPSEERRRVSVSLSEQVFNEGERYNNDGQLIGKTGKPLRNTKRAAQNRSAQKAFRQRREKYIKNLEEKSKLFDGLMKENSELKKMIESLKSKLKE
Outline: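 GST-tagged yeast TFs (full-length or DNA-binding domain) were made by PURExpress in vitro transcription/translation and applied at about 100-200 nM to universal all-10-mer Agilent arrays. The arrays were made double-stranded by primer extension, on fresh or once-stripped slides. Bound protein was detected with fluorescent anti-GST, and scans were normalised with masliner. Each ungapped eight-base word, pooled with its reverse complement, received an E-score (modified Wilcoxon-Mann-Whitney statistic) from the Universal PBM Analysis Suite.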

Sequence | PBM E-score
CTACGCCC | -0.0718
CTATAAAC | -0.00307
TAGTTCGA | 0.0579
CAGTACGA | 0.103
CTAGATTA | 0.223
ACCGAAAC | 0.0166
TCCAACGA | -0.151
CTTAGGGC | -0.208
ATTGTGCC | -0.0501
CAAAGTCG | -0.0483
AGTGGTAG | -0.0919
GCGCGAAC | -0.0137
ATGGTAGG | -0.0925
ATGAGTTA | 0.0342
TTCCAAAA | -0.149
CGCGGGTA | 0.152
AACGACTG | 0.0392
ATACTAGA | 0.142
CACCTACG | -0.00197
AGCTGCAT | -0.0932
AGTAGGAT | -0.0168
AAATTTCC | 0.0375
ACAAATGT | 0.0871
GAGGAAGA | -0.0861
CAGCAAGG | -0.168

Sequence | PBM E-score
GTTCCATA | 0.0652
CAGAATTA | 0.0194
CAGTGGCA | -0.108
AGGGATGA | 0.01
CGAAGTAA | 0.151
ATGGCCCC | -0.221
GCGATACA | -0.00898
ATATCAAT | 0.205
ACATCTGA | -0.25
CCGCGCTA | 0.0777
AATTGCAT | 0.157
ATCCTCTG | 0.0169
CTAGATAA | 0.0277
ACGTGTAT | 0.179
AACACTAG | 0.172
ATACGGCA | 0.151
ACTGTGCC | -0.154
AAGATCCG | -0.113
GGTTTAGA | -0.0277
CTAACGAC | -0.103
CGAGGCCC | -0.167
GGACAACC | -0.17
ATCCATGC | -0.0259
CCAACGTA | 0.00541
CCCTGAGA | -0.132

Some of the entries above, set out differently.

| Sequence | PBM E-score |
| --- | --- |
| CTAGATAA | 0.0277 |
| ACGTGTAT | 0.179 |

Continuation:

Sequence | PBM E-score
TACGCAGA | 0.0978
TGAAACAA | 0.0672
AACCTCCG | -0.183
CGTAAGAC | 0.0208
GCGTCCCA | -0.176
AAAGCCCT | -0.168
TAGTATAA | 0.101
ATCTGGGG | -0.123
GATGTGGC | -0.102
CTCGCGTA | -0.0518
CCAGGACC | -0.188
GTGTACCA | -0.0106
ATTCACTA | 0.206
TATATCGA | 0.203
GAGCGGAC | -0.251
ACCATTAC | 0.0454
CCAACCCC | -0.0486
CAACGTGG | -0.0906
TGCACCCA | 0.0314
CGAAAGCA | 0.104
CATTGTCA | 0.0649
GACTTCTC | -0.0136
ATAGGGTC | -0.0726
AGGTAGAC | -0.0252
AGGACAAT | 0.115

Looked up one by one from the list above:
Sequence | PBM E-score
GCGTCCCA | -0.176
TAGTATAA | 0.101

A different layout for some results above.
Sequence	PBM E-score
ACCATTAC	0.0454
CCAACCCC	-0.0486
CAACGTGG	-0.0906
TGCACCCA	0.0314
CGAAAGCA	0.104

(continued)

Sequence | PBM E-score
ATGCATTA | 0.341
GATAGCAA | 0.279
ACTGAGCC | -0.101
CCGTTATA | 0.0331
ACACAGAG | 0.0184
GAGTCAGA | -0.0391
AACTCCGA | -0.135
ACTAACAG | 0.198
AGTGTTAA | 0.202
CCAATTAA | 0.154
AAAAACGG | 0.0031
AGAGGAAA | 0.0227
CTGTAGAA | -0.0177
CAATAAAA | 0.141
CCGGCTGC | -0.134
AATCTCTG | -0.129
CTGATGGA | 0.0384
AGAGAGAA | -0.12
AAAAGGCC | -0.183
AGTCTGAA | -0.00268
ACGCCTTG | -0.0542
AAAGCTTT | -0.056
ATAGTCTC | 0.041
AAAACAGT | 0.226
ACAGCCCG | -0.18

Sequence | PBM E-score
AGTACGGA | 0.224
ACTCAGAC | -0.0116
CAGTGCCG | -0.0996
GCAGATTA | 0.129
AATTATTC | 0.19
CGGGGTAG | -0.0489
AGCTAAGG | -0.264
ACCACCAC | 0.0127
AGAAATTC | -0.0475
AAATCGCA | 0.0889
CCTTGTGA | -0.0498
CGCTGCCC | -0.265
CGGTTTCA | 0.00702
CAAGGTGG | -0.0819
CACAACGA | -0.00952
AGGGCGCA | -0.137
CTGAGCGA | -0.021
GAGGCCTA | -0.142
ATGGAGGA | -0.0744
CAGGGTCA | -0.197
CACGTATC | 0.0779
ACAATCCG | 0.106
GGTAAAAC | -0.00986
CAAACCTG | -0.00972
GGAGAACA | -0.033

Sequence | PBM E-score
CTAGCAAG | -0.0636
CAGAGAGA | -0.0433
GAAGGAGA | 0.0841
ATAACTGG | 0.00864
AAATCCAA | 0.117
GTAGCTCA | -0.046
TAACGACA | 0.145
GATTCGGC | 0.0202
ATCAAAGA | -0.107
CCCTAGAG | -0.0969
GCCTATCC | -0.122
ACGTTCAA | -0.133
GGATAACA | 0.0726
AGCATGTC | 0.00532
ATATTAGG | 0.192
AGGATGGA | -0.0937
AGTACCCC | -0.188
ATCGACAA | 0.0851
ATTGCAAT | 0.164
TATAGGAA | 0.124
GACTCACC | -0.14
GCCACTCA | -0.0426
CTTCGAAC | -0.0704
GTATCAGA | -0.0398
GGACTGCA | -0.157

Sequence | PBM E-score
CAGTTGTC | 0.0812
ATCGGCGG | 0.0315
CTTGGGTA | 0.0866
GACTAGAA | 0.0407
CGGACCCC | -0.295
ACATCAGC | 0.0733
ATTTGGGA | 0.0403
ACGTGCCT | -0.155
GTTACAAC | 0.118
ATCTTCGG | 0.128
AAACTAAT | 0.312
ATCCCATC | 0.0574
AGCCTGCG | -0.306
GTCCCCAC | -0.284
GAGTGGTA | -0.0138
ATGTCAAT | 0.156
AATCGAAC | 0.0419
ATGGAAAA | 0.141
ACCTCCAA | -0.135
ACGGGTCA | -0.279
CCTGATCG | -0.0727
GAGCTAAA | -0.173
